Source: publication PMC7862700
This is a selection; strong and weak results do not stand in their true shares. At the low end of the ranking, values are background and their order means little.

Protein sequences, listed by entry. Tags and fused reporters are not part of them. Lines headed by an entry give the natural chain unless they say otherwise; changes in a name come on top.
UniProt Q00613: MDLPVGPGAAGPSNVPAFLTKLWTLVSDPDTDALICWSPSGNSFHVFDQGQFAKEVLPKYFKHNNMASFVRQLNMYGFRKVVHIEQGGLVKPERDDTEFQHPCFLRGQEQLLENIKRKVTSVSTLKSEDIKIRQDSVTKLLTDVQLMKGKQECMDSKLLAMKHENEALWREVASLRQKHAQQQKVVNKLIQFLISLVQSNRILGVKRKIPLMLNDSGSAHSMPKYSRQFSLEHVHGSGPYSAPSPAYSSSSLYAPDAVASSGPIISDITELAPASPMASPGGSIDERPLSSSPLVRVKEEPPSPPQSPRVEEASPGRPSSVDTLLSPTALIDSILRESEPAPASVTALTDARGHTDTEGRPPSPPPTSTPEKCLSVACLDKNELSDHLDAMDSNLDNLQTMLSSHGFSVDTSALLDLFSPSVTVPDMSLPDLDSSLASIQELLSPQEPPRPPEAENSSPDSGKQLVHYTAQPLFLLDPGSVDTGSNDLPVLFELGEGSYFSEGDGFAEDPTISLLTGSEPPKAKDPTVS

Molecular target: HSF1 (UniProt Q00613)
Assay: DAPPL (digital affinity profiling via proximity ligation, sequencing)
Conditions: 10 mM Tris-HCl pH 7.5, 50 mM NaCl, 1 mM DTT, 4% glycerol, room temperature, 30 min; GST-TFs on glutathione beads, 16-mer random dsDNA library, 0.1% …; high values mean tight binding; double strand, one strand shown; scale: fold enrichment (6-mer frequency, TF over GST control)

Sequence	binding signal
GGATGA	0.944
ATGAGA	0.927
TACCAG	1.22
TCGGAC	0.343
GACGCT	0.668
GGCATG	0.692
AAGAGT	0.901
CAACAG	0.751
AGTGTG	0.544
CGCAGA	0.796
CGAGCG	0.824
TGAGAG	0.564
GGCTGT	0.676
GAGGTC	0.476
GGAGCC	0.263
TGAGTC	0.204
AGTTGG	0.418
TCAGTC	0.572
TGTAGT	0.744

Looked up above.
Value for GGAGCC under binding signal: 0.263
Value for AGTTGG under binding signal: 0.418

(listing goes on)

Sequence	binding signal
TGCAGT	0.65
TCGGGC	0.48
GCCAGC	0.666
TAGGCG	0.649
TGTGTC	0.595
GTTAGA	0.768
CCCGAG	0.954
TGGACG	0.797
TAGAGG	0.939
GCAAGA	0.792
CAGCGT	0.688
ACGCAA	0.802
GTCGCC	0.61
GGTTGA	0.618
CGGGCA	0.625
CTGAGT	0.554
AGAGGG	0.732
CGCGGG	0.675
AGTAAG	0.828
